Test results taken from the supplement of paper PMC6411743.
± gives the standard deviation of the averaged measurements. This is a selection; strong and weak results do not stand in their true shares.

Chains of the proteins cited; added tags and fusions are not shown. Lines headed by an entry give the natural chain unless they say otherwise; changes in a name come on top.
UniProt P11166: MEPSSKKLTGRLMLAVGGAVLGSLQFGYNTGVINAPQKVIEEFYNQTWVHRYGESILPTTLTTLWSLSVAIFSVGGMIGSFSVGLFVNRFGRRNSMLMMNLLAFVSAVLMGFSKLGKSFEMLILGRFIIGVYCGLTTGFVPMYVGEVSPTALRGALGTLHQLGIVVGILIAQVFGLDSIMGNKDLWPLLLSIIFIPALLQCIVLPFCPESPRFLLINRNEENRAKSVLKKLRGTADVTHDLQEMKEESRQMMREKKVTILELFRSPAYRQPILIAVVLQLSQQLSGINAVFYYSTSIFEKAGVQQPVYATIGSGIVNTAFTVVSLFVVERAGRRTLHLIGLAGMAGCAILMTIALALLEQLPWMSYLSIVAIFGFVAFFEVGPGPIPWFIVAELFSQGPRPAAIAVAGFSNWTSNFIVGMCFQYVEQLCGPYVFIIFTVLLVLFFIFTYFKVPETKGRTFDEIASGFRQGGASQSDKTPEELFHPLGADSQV
UniProt P10109: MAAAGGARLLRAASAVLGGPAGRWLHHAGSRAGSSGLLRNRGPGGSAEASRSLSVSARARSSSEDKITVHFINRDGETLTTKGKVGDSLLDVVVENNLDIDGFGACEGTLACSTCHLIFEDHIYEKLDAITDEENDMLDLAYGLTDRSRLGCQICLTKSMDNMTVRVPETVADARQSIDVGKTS
UniProt P14927: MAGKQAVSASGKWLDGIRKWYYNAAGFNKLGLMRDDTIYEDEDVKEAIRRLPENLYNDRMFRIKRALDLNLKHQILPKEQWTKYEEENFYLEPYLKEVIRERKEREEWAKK
UniProt P06729: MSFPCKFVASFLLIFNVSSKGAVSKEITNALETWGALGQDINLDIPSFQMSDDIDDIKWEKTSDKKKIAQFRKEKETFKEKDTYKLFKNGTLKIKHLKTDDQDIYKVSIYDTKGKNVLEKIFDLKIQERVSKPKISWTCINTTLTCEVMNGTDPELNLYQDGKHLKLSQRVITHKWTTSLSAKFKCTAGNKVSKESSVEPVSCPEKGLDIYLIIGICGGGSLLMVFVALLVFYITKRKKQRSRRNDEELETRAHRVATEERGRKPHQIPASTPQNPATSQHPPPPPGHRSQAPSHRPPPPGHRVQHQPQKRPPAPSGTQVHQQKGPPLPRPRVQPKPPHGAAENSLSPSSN
UniProt P09132: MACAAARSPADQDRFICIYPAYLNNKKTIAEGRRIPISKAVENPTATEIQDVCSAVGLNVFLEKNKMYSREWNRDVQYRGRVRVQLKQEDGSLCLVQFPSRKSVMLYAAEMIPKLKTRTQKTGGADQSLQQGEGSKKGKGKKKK
UniProt O95985: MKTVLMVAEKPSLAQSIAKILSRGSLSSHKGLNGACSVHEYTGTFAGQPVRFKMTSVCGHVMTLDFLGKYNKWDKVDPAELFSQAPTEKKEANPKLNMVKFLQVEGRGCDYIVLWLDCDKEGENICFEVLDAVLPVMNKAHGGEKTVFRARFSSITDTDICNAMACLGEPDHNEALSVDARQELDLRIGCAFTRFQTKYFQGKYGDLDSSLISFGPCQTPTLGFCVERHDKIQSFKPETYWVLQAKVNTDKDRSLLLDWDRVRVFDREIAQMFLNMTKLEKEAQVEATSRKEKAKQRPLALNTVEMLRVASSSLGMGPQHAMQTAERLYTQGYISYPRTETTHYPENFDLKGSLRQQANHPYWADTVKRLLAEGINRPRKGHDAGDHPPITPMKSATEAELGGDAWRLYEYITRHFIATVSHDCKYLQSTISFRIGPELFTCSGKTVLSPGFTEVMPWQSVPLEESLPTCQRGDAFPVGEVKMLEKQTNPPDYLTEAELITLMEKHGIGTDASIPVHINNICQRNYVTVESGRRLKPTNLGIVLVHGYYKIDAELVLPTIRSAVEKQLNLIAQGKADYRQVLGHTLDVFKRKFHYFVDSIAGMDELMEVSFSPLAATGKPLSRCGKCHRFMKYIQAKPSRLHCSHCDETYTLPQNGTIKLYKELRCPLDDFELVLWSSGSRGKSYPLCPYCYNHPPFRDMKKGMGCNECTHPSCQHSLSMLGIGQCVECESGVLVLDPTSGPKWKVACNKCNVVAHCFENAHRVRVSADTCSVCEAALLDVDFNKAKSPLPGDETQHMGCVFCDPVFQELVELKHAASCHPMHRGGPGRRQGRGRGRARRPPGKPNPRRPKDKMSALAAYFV
UniProt P13995: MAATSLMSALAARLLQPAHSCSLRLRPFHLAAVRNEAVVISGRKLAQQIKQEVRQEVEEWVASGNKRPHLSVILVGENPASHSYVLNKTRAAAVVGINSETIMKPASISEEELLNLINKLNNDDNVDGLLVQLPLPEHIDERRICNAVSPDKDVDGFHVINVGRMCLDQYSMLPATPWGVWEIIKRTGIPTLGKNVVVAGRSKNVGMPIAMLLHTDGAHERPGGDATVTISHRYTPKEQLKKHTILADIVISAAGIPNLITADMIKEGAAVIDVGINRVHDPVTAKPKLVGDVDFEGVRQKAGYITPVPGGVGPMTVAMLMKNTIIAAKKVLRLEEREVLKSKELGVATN
UniProt P13196: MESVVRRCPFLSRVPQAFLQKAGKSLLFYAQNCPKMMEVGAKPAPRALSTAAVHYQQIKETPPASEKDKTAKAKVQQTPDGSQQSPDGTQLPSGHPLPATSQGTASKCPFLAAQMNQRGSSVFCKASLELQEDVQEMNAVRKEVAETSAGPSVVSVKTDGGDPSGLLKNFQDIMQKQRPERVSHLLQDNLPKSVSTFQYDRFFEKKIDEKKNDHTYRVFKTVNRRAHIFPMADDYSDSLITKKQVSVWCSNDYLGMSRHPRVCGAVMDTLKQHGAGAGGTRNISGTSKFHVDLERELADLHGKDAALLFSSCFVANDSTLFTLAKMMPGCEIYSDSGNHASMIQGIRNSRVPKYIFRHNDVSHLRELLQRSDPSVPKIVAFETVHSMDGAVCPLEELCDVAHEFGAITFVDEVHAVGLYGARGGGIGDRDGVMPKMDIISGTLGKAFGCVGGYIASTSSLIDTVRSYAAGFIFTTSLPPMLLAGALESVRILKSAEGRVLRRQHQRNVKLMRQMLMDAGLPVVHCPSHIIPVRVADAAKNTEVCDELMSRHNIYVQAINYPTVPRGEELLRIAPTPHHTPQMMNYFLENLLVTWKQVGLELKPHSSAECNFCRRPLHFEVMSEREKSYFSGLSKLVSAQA
UniProt P09012, whole entry: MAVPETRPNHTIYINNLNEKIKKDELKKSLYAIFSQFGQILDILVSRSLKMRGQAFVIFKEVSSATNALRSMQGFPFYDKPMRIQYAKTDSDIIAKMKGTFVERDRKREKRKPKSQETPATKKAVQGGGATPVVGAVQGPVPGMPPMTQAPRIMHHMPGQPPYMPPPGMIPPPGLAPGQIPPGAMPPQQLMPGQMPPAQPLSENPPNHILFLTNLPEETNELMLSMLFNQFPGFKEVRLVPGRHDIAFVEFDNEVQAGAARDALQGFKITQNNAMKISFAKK
UniProt P10619: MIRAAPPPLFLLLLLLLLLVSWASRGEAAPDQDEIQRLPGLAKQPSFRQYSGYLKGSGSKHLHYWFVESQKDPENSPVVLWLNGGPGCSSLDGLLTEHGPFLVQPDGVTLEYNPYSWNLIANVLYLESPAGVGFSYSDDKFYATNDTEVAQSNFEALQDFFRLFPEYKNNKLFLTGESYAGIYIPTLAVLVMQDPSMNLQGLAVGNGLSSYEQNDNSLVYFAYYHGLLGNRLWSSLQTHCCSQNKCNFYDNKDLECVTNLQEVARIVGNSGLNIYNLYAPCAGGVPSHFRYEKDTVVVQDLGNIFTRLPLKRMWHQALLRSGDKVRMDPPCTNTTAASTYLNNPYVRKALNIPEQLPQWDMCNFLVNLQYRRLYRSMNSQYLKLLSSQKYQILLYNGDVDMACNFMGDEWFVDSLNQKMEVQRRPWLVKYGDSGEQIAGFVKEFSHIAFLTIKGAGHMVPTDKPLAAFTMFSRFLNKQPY
UniProt P00491: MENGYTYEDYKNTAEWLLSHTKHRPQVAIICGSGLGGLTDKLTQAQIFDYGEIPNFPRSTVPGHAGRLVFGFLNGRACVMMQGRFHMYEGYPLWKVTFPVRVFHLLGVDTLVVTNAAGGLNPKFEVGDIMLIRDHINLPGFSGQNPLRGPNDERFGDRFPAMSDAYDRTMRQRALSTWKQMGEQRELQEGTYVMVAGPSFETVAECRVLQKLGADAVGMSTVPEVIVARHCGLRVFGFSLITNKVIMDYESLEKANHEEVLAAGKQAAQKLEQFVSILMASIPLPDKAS
UniProt P06127: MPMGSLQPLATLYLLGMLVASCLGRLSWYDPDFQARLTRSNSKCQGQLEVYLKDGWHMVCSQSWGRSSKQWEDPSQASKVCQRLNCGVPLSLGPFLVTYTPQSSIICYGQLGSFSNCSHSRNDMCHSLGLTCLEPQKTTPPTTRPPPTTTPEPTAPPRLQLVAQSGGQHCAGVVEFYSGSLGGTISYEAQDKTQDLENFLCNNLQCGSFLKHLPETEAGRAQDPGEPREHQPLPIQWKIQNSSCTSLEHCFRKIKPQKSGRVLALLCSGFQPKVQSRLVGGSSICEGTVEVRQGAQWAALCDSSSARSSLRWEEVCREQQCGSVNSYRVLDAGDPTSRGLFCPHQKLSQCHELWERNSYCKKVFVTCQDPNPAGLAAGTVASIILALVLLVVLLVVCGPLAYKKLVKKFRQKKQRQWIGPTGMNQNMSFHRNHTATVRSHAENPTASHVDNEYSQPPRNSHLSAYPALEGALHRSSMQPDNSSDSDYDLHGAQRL
UniProt P10074: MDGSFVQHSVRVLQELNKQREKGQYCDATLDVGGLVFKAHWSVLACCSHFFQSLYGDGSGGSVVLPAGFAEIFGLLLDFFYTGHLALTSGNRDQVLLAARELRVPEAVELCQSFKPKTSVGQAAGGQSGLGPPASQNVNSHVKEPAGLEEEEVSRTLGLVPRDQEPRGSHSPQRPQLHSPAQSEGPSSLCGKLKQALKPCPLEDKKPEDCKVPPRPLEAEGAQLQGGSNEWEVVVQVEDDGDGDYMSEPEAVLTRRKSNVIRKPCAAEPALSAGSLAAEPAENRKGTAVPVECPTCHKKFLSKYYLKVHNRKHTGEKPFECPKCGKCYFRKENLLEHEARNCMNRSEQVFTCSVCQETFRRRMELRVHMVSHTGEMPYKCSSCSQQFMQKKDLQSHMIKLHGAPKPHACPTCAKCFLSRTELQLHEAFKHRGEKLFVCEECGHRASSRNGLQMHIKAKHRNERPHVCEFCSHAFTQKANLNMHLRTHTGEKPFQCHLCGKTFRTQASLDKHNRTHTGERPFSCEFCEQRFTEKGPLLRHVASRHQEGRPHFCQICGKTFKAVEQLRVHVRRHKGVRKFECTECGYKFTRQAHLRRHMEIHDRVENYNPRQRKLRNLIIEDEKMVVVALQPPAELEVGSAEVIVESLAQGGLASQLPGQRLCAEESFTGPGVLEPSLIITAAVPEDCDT
UniProt P11908: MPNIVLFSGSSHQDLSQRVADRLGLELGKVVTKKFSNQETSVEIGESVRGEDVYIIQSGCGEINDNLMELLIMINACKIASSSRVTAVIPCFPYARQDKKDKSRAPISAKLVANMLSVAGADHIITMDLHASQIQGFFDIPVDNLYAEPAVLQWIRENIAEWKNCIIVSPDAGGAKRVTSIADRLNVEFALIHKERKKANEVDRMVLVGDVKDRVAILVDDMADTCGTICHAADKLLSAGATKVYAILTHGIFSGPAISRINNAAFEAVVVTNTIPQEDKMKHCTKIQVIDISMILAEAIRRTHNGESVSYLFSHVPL
UniProt P11387: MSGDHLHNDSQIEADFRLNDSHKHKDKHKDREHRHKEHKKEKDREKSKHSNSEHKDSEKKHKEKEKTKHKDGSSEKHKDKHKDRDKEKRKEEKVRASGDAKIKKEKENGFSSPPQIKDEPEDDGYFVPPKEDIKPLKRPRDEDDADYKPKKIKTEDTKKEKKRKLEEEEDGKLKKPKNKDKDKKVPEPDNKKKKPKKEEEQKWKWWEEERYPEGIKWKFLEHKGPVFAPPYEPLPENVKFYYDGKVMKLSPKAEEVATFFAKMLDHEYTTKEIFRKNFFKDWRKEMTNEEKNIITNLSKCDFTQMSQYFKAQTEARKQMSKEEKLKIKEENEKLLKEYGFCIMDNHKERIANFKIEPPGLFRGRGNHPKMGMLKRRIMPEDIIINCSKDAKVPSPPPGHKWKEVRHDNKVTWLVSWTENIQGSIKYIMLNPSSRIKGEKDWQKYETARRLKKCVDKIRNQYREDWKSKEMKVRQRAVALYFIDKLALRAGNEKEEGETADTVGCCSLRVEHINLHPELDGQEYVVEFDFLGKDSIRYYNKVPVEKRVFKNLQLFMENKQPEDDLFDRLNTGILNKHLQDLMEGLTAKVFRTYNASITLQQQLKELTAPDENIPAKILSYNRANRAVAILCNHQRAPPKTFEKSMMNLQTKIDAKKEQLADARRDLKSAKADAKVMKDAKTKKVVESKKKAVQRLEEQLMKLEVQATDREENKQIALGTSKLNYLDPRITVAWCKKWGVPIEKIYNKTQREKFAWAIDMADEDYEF
UniProt P16949: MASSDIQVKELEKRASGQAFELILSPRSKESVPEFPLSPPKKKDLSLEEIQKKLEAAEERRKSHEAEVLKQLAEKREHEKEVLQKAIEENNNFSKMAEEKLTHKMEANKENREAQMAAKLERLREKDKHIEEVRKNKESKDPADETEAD

Compound: Nc1ncnc2c1ncn2[C@@H]1O[C@H](COP(=O)(O)OP(=O)(O)NP(=O)(O)O)[C@@H](O)[C@H]1O [adenylyl imidodiphosphate]
Experiment: NP40-soluble protein abundance relative to vehicle (solubility fold change) (ratio); higher = more soluble protein in presence of AMP-PNP
Summary of the method: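 Across three independent experiments, values are fold changes against the detergent-processed vehicle for each replicate, based on vsn-normalised intensities. The samples were Jurkat crude lysate treated with eight concentrations (0.1 to 10 mM) for 10 min at room temperature and then 3 min at 37 °C. Lysate was solubilised with 0.8% NP40 and benzonase, ultracentrifuged, and the supernatant analysed by TMT-labelled LC-MS/MS.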

Target	NP40-soluble protein abundance (concentration: 1mM)	NP40-soluble protein abundance (concentration: 2mM)	NP40-soluble protein abundance (concentration: 4mM)	NP40-soluble protein abundance (concentration: 6mM)	NP40-soluble protein abundance (concentration: 8mM)	NP40-soluble protein abundance (concentration: 10mM)
UniProt P06730 and related entries	1.08 ± 0.029	1.05 ± 0.024	1.1 ± 0.046	1.06 ± 0.036	1.12 ± 0.07	1.07 ± 0.029
SLC2A1 (UniProt P11166)	1.015 ± 0.005	0.999 ± 0.042	1.02 ± 0.055	0.998 ± 0.029	1.01 ± 0.032	1.01 ± 0.053
P0C0S5 and related entries (UniProt Q71UI9+P0C0S5)	0.922 ± 0.051	0.957 ± 0.046	0.936 ± 0.019	1.01 ± 0.031	1.07 ± 0.015	1.1 ± 0.037
FDX1 (UniProt P10109)	0.974 ± 0.028	0.979 ± 0.034	0.943 ± 0.053	0.945 ± 0.032	0.897 ± 0.06	0.916 ± 0.054
UniProt P10155	0.957 ± 0.057	0.909 ± 0.019	0.95 ± 0.026	0.953 ± 0.056	0.979 ± 0.03	0.946 ± 0.021
HSPA5 (UniProt P11021)	1.04 ± 0.031	1.08 ± 0.043	1.02 ± 0.034	1.01 ± 0.053	0.988 ± 0.035	1 ± 0.051
ADA (UniProt P00813)	0.991 ± 0.026	0.952 ± 0.018	0.969 ± 0.0092	0.993 ± 0.04	0.986 ± 0.068	0.956 ± 0.098
HSP90B1 (UniProt P14625)	0.996 ± 0.015	0.9973 ± 0.0081	0.976 ± 0.015	1.04 ± 0.019	0.997 ± 0.02	1.028 ± 0.009
DLD (UniProt P09622)	0.99 ± 0.057	0.963 ± 0.11	0.983 ± 0.069	0.993 ± 0.072	1.01 ± 0.072	1 ± 0.08
APRT (UniProt P07741)	0.901 ± 0.085	0.787 ± 0.025	0.948 ± 0.12	1.12 ± 0.23	1.13 ± 0.27	1.07 ± 0.21
HMGB1 (UniProt P09429)	1.06 ± 0.085	1.19 ± 0.16	1.06 ± 0.11	1.11 ± 0.086	1.17 ± 0.045	1.19 ± 0.067
UniProt P07992 and related entries	0.944 ± 0.079	0.921 ± 0.07	0.926 ± 0.093	0.954 ± 0.096	0.97 ± 0.1	0.948 ± 0.073
ITGA5 (UniProt P08648)	1.02 ± 0.015	1.06 ± 0.089	1.06 ± 0.028	0.989 ± 0.056	1.02 ± 0.025	1.01 ± 0.043
UniProt P11177 and related entries	0.994 ± 0.14	0.99 ± 0.074	0.956 ± 0.11	0.918 ± 0.14	0.944 ± 0.099	0.974 ± 0.12
SP1 (UniProt P08047)	1.01 ± 0.035	1.08 ± 0.098	1 ± 0.045	1.02 ± 0.026	0.99 ± 0.018	1.07 ± 0.031
UQCRB (UniProt P14927)	0.9813 ± 0.003	1.07 ± 0.082	0.954 ± 0.025	0.969 ± 0.018	0.935 ± 0.0015	0.933 ± 0.023
ICAM2 (UniProt P13598)	1.09 ± 0.034	1.1 ± 0.092	1.03 ± 0.079	1.03 ± 0.024	1.02 ± 0.032	0.975 ± 0.076
UniProt P06729	0.996 ± 0.069	1.15 ± 0.33	1.02 ± 0.13	1.23 ± 0.18	1.19 ± 0.14	1.28 ± 0.19
BAG2 (UniProt O95816)	1.09 ± 0.059	1.07 ± 0.095	1.02 ± 0.061	1 ± 0.07	0.967 ± 0.082	0.925 ± 0.067
SRP19 (UniProt P09132)	1.03 ± 0.054	1.15 ± 0.17	1.08 ± 0.055	1.11 ± 0.071	1.08 ± 0.021	1.21 ± 0.034

Target	NP40-soluble protein abundance (concentration: 1mM)	NP40-soluble protein abundance (concentration: 2mM)	NP40-soluble protein abundance (concentration: 4mM)	NP40-soluble protein abundance (concentration: 6mM)	NP40-soluble protein abundance (concentration: 8mM)	NP40-soluble protein abundance (concentration: 10mM)
MYL6B (UniProt P14649)	1.02 ± 0.042	1.1 ± 0.053	1.01 ± 0.034	0.987 ± 0.051	0.925 ± 0.041	0.962 ± 0.019
CST3 (UniProt P01034)	1.006 ± 0.0046	1.03 ± 0.012	0.9835 ± 0.0016	0.9858 ± 0.0014	0.995 ± 0.014	0.984 ± 0.018
UniProt O96017 and related entries	0.948 ± 0.042	0.881 ± 0.069	0.915 ± 0.031	0.929 ± 0.014	0.937 ± 0.012	0.892 ± 0.014
UniProt P11171 and related entries	1.015 ± 0.008	1.015 ± 0.0095	1.01 ± 0.035	0.986 ± 0.012	0.972 ± 0.017	0.98 ± 0.03
EPRS (UniProt P07814)	0.984 ± 0.079	0.935 ± 0.12	0.933 ± 0.11	0.934 ± 0.14	0.923 ± 0.13	0.913 ± 0.17
UniProt O95985 and related entries	0.997 ± 0.014	0.982 ± 0.023	0.995 ± 0.027	0.991 ± 0.016	1.02 ± 0.014	1 ± 0.031
UniProt P16383 and related entries	1.05 ± 0.038	1.09 ± 0.044	1.101 ± 0.0092	1.08 ± 0.03	1.07 ± 0.033	1.097 ± 0.0024
ASS1 (UniProt P00966)	1.02 ± 0.059	0.923 ± 0.1	0.966 ± 0.04	0.961 ± 0.029	0.963 ± 0.023	0.939 ± 0.037
UniProt O95980	0.995 ± 0.016	1.02 ± 0.0047	1.01 ± 0.014	0.977 ± 0.013	0.973 ± 0.023	1.02 ± 0.024
MTHFD2 (UniProt P13995)	1.06 ± 0.013	1.06 ± 0.012	1.06 ± 0.029	1.03 ± 0.033	1.05 ± 0.012	1.03 ± 0.04
ALAS1 (UniProt P13196)	0.966 ± 0.04	0.99 ± 0.037	0.969 ± 0.045	0.975 ± 0.053	0.973 ± 0.029	0.981 ± 0.063
SNRPA (UniProt P09012)	0.997 ± 0.034	1.03 ± 0.073	0.954 ± 0.067	0.926 ± 0.03	0.909 ± 0.017	0.91 ± 0.051
CAT (UniProt P04040)	1.01 ± 0.014	0.958 ± 0.04	0.976 ± 0.015	0.956 ± 0.02	0.97 ± 0.029	0.936 ± 0.016
UniProt P00167 and related entries	0.995 ± 0.028	0.984 ± 0.033	0.936 ± 0.036	0.992 ± 0.011	0.948 ± 0.021	0.966 ± 0.012
UniProt P10619 and related entries	0.979 ± 0.018	0.987 ± 0.086	0.984 ± 0.044	1.05 ± 0.11	1.06 ± 0.083	1.07 ± 0.13
UniProt P12814 and related entries	1.01 ± 0.037	1.01 ± 0.015	1 ± 0.024	1.03 ± 0.035	1.01 ± 0.055	1.03 ± 0.012
UniProt P14859 and related entries	1.06 ± 0.033	1.13 ± 0.16	1.04 ± 0.066	1.04 ± 0.026	1 ± 0.054	1.04 ± 0.045
UniProt P0C869-6|P0C869-7|P0C869-8	1.01 ± 0.014	1.01 ± 0.057	1.02 ± 0.049	0.987 ± 0.013	0.997 ± 0.056	0.993 ± 0.024
IMPDH2 (UniProt P12268)	0.962 ± 0.071	0.851 ± 0.086	0.827 ± 0.14	0.831 ± 0.13	0.867 ± 0.11	0.834 ± 0.15
UniProt P00491	1 ± 0.047	0.924 ± 0.038	0.988 ± 0.024	0.998 ± 0.047	1.03 ± 0.033	0.961 ± 0.033

Target	NP40-soluble protein abundance (concentration: 1mM)	NP40-soluble protein abundance (concentration: 2mM)	NP40-soluble protein abundance (concentration: 4mM)	NP40-soluble protein abundance (concentration: 6mM)	NP40-soluble protein abundance (concentration: 8mM)	NP40-soluble protein abundance (concentration: 10mM)
HMGN2 (UniProt P05204)	1.06 ± 0.04	1.15 ± 0.12	1.09 ± 0.05	1.25 ± 0.081	1.16 ± 0.21	1.54 ± 0.28
UROD (UniProt P06132)	1.01 ± 0.02	0.992 ± 0.044	1.01 ± 0.043	0.947 ± 0.042	0.967 ± 0.015	0.939 ± 0.044
UniProt P06127	1.04 ± 0.015	1.1 ± 0.069	1.06 ± 0.021	1.023 ± 0.0075	1.01 ± 0.021	1.07 ± 0.019
TGFB1 (UniProt P01137)	0.9779 ± 0.0078	0.9775 ± 0.0022	0.971 ± 0.015	0.992 ± 0.014	0.995 ± 0.017	0.9831 ± 0.008
ZBTB48 (UniProt P10074)	0.981 ± 0.021	0.976 ± 0.012	0.952 ± 0.034	0.944 ± 0.058	0.92 ± 0.031	0.913 ± 0.061
UniProt P08134 and related entries	1.04 ± 0.062	0.998 ± 0.04	1.05 ± 0.082	1.06 ± 0.13	1.1 ± 0.067	1.13 ± 0.11
PRPS2 (UniProt P11908)	0.88 ± 0.064	0.797 ± 0.088	0.829 ± 0.066	0.837 ± 0.082	0.852 ± 0.035	0.814 ± 0.11
UniProt P11234 and related entries	1.02 ± 0.034	0.998 ± 0.039	1 ± 0.045	1.04 ± 0.037	1.03 ± 0.064	1.02 ± 0.064
TFRC (UniProt P02786)	0.995 ± 0.06	0.984 ± 0.058	0.971 ± 0.057	1.09 ± 0.072	1.06 ± 0.043	1.08 ± 0.034
CYC1 (UniProt P08574)	0.998 ± 0.046	0.983 ± 0.046	0.977 ± 0.027	0.991 ± 0.071	0.971 ± 0.048	0.977 ± 0.029
UniProt P00374 and related entries	1.02 ± 0.055	1.01 ± 0.041	1.03 ± 0.039	0.951 ± 0.03	0.967 ± 0.056	1.01 ± 0.03
UniProt O95831 and related entries	0.9988 ± 0.0052	0.941 ± 0.075	0.97 ± 0.028	0.9628 ± 0.0027	0.984 ± 0.038	0.944 ± 0.023
UniProt O95758-6|O95758-1	1 ± 0.041	1.04 ± 0.074	1.01 ± 0.063	0.99 ± 0.047	1.01 ± 0.044	1 ± 0.064
TOP1 (UniProt P11387)	1.03 ± 0.028	1.03 ± 0.045	1.1 ± 0.023	1.184 ± 0.0062	1.24 ± 0.014	1.31 ± 0.018
UniProt O95983 and related entries	0.99 ± 0.042	1.01 ± 0.041	0.979 ± 0.026	0.936 ± 0.054	0.967 ± 0.059	0.918 ± 0.069
P0DN79 and related entries (UniProt P35520+P0DN79)	1.01 ± 0.048	0.97 ± 0.044	1.01 ± 0.036	0.9986 ± 0.0076	0.993 ± 0.041	1.01 ± 0.017
GNAI2 (UniProt P04899)	0.972 ± 0.02	0.906 ± 0.11	0.935 ± 0.035	0.97 ± 0.038	0.998 ± 0.057	0.923 ± 0.034
UniProt P04053 and related entries	1.02 ± 0.038	0.916 ± 0.089	1.009 ± 0.0077	1 ± 0.043	1.03 ± 0.034	0.993 ± 0.029
ANXA5 (UniProt P08758)	0.993 ± 0.02	0.995 ± 0.054	1.01 ± 0.053	1.1 ± 0.075	1.1 ± 0.042	1.02 ± 0.034
STMN1 (UniProt P16949)	0.982 ± 0.036	1.02 ± 0.042	0.906 ± 0.062	0.901 ± 0.011	0.858 ± 0.018	0.853 ± 0.072

Reprinted at random: four entries already listed.
Target	NP40-soluble protein abundance (concentration: 1mM)	NP40-soluble protein abundance (concentration: 2mM)	NP40-soluble protein abundance (concentration: 4mM)	NP40-soluble protein abundance (concentration: 6mM)	NP40-soluble protein abundance (concentration: 8mM)	NP40-soluble protein abundance (concentration: 10mM)
HMGB1 (UniProt P09429)	1.06 ± 0.085	1.19 ± 0.16	1.06 ± 0.11	1.11 ± 0.086	1.17 ± 0.045	1.19 ± 0.067
UniProt P11234 and related entries	1.02 ± 0.034	0.998 ± 0.039	1 ± 0.045	1.04 ± 0.037	1.03 ± 0.064	1.02 ± 0.064
UniProt P07992 and related entries	0.944 ± 0.079	0.921 ± 0.07	0.926 ± 0.093	0.954 ± 0.096	0.97 ± 0.1	0.948 ± 0.073
HMGN2 (UniProt P05204)	1.06 ± 0.04	1.15 ± 0.12	1.09 ± 0.05	1.25 ± 0.081	1.16 ± 0.21	1.54 ± 0.28
